Reference: patent publication US20260108546A1 (ELI LILLY AND COMPANY, priority 2024, published 2026)
Some entries share one result that the patent states for a list of compounds.

molecular target: T1, hGIP-R (Homo sapiens, UniProt P48546); assay: Functional hGIP-R Assay (cAMP formation, HTRF); assay type: cell-based; conditions: cAMP formation in HEK-293 clonal cell lines expressing hGIP-R; 30 min at 37° C.; 0.1% bovine casein; relative EC50 vs. maximal response of human GIP (1-42) OH
T1 construct: expressed in transfected cells; host or cells: HEK-293 clonal cell lines
T1 sequence (P48546 22-466): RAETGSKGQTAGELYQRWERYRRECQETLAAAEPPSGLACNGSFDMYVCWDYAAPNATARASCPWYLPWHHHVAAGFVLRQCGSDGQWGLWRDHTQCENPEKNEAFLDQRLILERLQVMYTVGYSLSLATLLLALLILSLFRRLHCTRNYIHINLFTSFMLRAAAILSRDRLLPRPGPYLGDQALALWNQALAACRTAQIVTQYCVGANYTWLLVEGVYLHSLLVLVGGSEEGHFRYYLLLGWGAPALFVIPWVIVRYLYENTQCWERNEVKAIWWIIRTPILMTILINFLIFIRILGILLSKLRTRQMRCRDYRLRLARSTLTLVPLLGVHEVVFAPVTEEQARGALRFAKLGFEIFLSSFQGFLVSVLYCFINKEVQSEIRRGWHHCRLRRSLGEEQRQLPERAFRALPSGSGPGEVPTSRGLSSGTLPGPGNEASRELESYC
Experimental: Functional activity was determined using CAMP formation in HEK-293 clonal cell lines expressing hGIP-R. hGIP-R receptor expressing cells were treated with compound (20 point concentration-response curve in DMSO, 2-fold Labcyte Echo direct dilution, 384 well plate Corning Cat #3570) in DMEM (Gibco Cat #31053) supplemented with 1× GlutaMAX™ (Gibco Cat #35050), 0.1% bovine casein (Sigma C4765-10ML), 250 μM IBMX (3-Isobutyl-1-methylxanthine, Acros Cat #228420010) and 20 mM HEPES (Gibco Cat #15630) in a 20 μL assay volume (final DMSO concentration was 1%). After a 30 min incubation at 37° C., the resulting increase in intracellular cAMP was quantitatively determined using the Revvity CAMP Dynamic 2 HTRF Assay Kit (62AM4PEJ). Briefly, cAMP levels within the cell were detected by adding the cAMP-d2 conjugate in cell lysis buffer (10 μL) followed by the antibody anti-cAMP-Eu^3+-Cryptate, also in cell lysis buffer (10 μL). The resulting competitive assay was incubated for at least 60 min at RT, then detected using a BMG Labtech PHERAstar FSX instrument with excitation at 320 nm and emission at 665 nm and 620 nm. PHERAstar units (emission at 665 nm/620 nm*10,000) are inversely proportional to the amount of cAMP present and were converted to nM cAMP per well using a CAMP standard curve. The amount of cAMP generated (nM) in each well was converted to a percent of the maximal response observed with human GIP (1-42) OH. A relative EC50 value and percent top (Emax) were derived by non-linear regression analysis using the percent maximal response vs. the concentration of compound added, fitted to a four-parameter logistic equation.

SMILES | EC50
CN(C)Cc1ccc(-c2cc(C(F)(F)F)nn2CC(C)(C)NC(=O)[C@@H](Cc2cnn(C(F)F)c2)N2CC[C@@]3(C[C@@H]3c3ccc(-c4cnc5nn(C)cc5c4)cc3F)C2=O)cn1 [Example 135, (R)-3-(1-(Difluoromethyl)-1H-pyrazol-4-yl)-N-(1-(5-(6-((dimethylamino)methyl)pyridin-3-yl)-3-(trifluoromethyl)-1H-pyrazol-1-yl)-2-methylpropan-2-yl)-2-((1S,3R)-1-(2-fluoro-4-(2-methyl-2H-pyrazolo[3,4-b]pyridin-5-yl)phenyl)-4-oxo-5-azaspiro[2.4]heptan-5-yl)propanamide] | ≤ 300 nM
Cn1cc(-c2cc(C(F)(F)F)nn2CC(C)(C)NC(=O)[C@@H](Cc2cnn(C(F)F)c2)NC(=O)[C@H]2C[C@@H]2c2ccc3c(c2)n(C)c(=O)n3C)cc(F)c1=O [Example 182] | ≤ 300 nM
Cc1cn2cc(-c3ccc([C@H]4C[C@@]45CCN([C@H](Cc4cnn(C(F)F)c4)C(=O)NC(C)(C)Cn4nc(C(F)(F)F)cc4-c4cnc(C6CC6)nc4)C5=O)cc3)cnc2n1 (single isomer, unassigned; isomer 1) [Example 101] | ≤ 300 nM
Cn1cc(C[C@@H](NC(=O)[C@H]2C[C@@H]2c2ccc(-c3cnc4nn(C)cc4c3)cc2)C(=O)NC(C)(C)Cn2nc(C(F)(F)F)cc2-c2cnn(C3COC3)c2)cn1 [Example 54, (1S,2S)-N-((R)-1-((2-Methyl-1-(1′-(oxetan-3-yl)-5-(trifluoromethyl)-1′H,2H-[3,4′-bipyrazol]-2-yl)propan-2-yl)amino)-3-(1-methyl-1H-pyrazol-4-yl)-1-oxopropan-2-yl)-2-(4-(2-methyl-2H-pyrazolo[3,4-b]pyridin-5-yl)phenyl) cyclopropane-1-carboxamide] | ≤ 300 nM
Cn1cc(C[C@@H](NC(=O)[C@H]2C[C@@H]2c2ccc(-c3cnc4nn(C)cc4c3)cc2)C(=O)NC(C)(C)Cn2nc(C(F)(F)F)cc2-c2ccnc(C(C)(C)O)c2)cn1 [Example 18, (1S,2S)-N-((R)-1-((1-(5-(2-(2-Hydroxypropan-2-yl)pyridin-4-yl)-3-(trifluoromethyl)-1H-pyrazol-1-yl)-2-methylpropan-2-yl)amino)-3-(1-methyl-1H-pyrazol-4-yl)-1-oxopropan-2-yl)-2-(4-(2-methyl-2H-pyrazolo [3,4-b]pyridin-5-yl)phenyl) cyclopropane-1-carboxamide] | ≤ 300 nM
CN(C(=O)[C@H]1C[C@@H]1c1ccc(-c2cnc3nn(C(F)F)cc3c2)cc1)[C@H](Cc1cnn(C)c1)C(=O)NC(C)(C)Cn1nc(C(F)(F)F)cc1-c1ccc(=O)n(C)c1 [Example 88, (1S,2S)-2-(4-(2-(Difluoromethyl)-2H-pyrazolo[3,4-b]pyridin-5-yl)phenyl)-N-methyl-N-((R)-1-((2-methyl-1-(5-(1-methyl-6-oxo-1,6-dihydropyridin-3-yl)-3-(trifluoromethyl)-1H-pyrazol-1-yl)propan-2-yl)amino)-3-(1-methyl-1H-pyrazol-4-yl)-1-oxopropan-2-yl)cyclopropane-1-carboxamide] | ≤ 300 nM
Cn1cc(C[C@@H](NC(=O)[C@H]2C[C@@H]2c2ccc(-c3cnc4nn(C)cc4c3)cc2)C(=O)NC(C)(C)Cn2nc(C(F)(F)F)cc2-c2cc[nH]n2)cn1 [Example 42] | ≤ 300 nM
Cn1cc2cc(-c3ccc([C@H]4C[C@@]45CCN([C@H](Cc4cnn(C(F)F)c4)C(=O)NC(C)(C)Cn4nc(C(F)(F)F)cc4-c4ccc(OC(F)F)nn4)C5=O)cc3)cnc2n1 [Example 121, (R)-N-(1-(5-(6-(Difluoromethoxy)pyridazin-3-yl)-3-(trifluoromethyl)-1H-pyrazol-1-yl)-2-methylpropan-2-yl)-3-(1-(difluoromethyl)-1H-pyrazol-4-yl)-2-((1R,3R)-1-(4-(2-methyl-2H-pyrazolo[3,4-b]pyridin-5-yl)phenyl)-4-oxo-5-azaspiro[2.4]heptan-5-yl)propanamide] | ≤ 300 nM
Cc1cn2cc(-c3ccc(C4CC45CCN([C@H](Cc4cnn(C(F)F)c4)C(=O)NC(C)(C)Cn4nc(C(F)(F)F)cc4-c4ccn(C6CC6)c(=O)c4)C5=O)c(C4CC4)n3)cnc2n1 (single isomer, unassigned) [Example 167] | ≤ 300 nM
Cn1cc(C[C@@H](NC(=O)[C@H]2C[C@@H]2c2ccc(-c3cnc4nn(C)cc4c3)cc2)C(=O)NC(C)(C)Cn2nc(C(F)(F)F)cc2-c2ccc(=O)n(C)c2)cn1 [Example 19, (1S,2S)-N-((R)-1-((2-Methyl-1-(5-(1-methyl-6-oxo-1,6-dihydropyridin-3-yl)-3-(trifluoromethyl)-1H-pyrazol-1-yl)propan-2-yl)amino)-3-(1-methyl-1H-pyrazol-4-yl)-1-oxopropan-2-yl)-2-(4-(2-methyl-2H-pyrazolo[3,4-b]pyridin-5-yl)phenyl) cyclopropane-1-carboxamide] | ≤ 300 nM
Cn1cc2cc(-c3ccc([C@H]4C[C@@]45CCN([C@H](Cc4cnn(C(F)F)c4)C(=O)NC(C)(C)Cn4nc(C(F)(F)F)cc4-c4cc(F)c(CO)cc4F)C5=O)cc3)cnc2n1 [Example 124, (R)-N-(1-(5-(2,5-Difluoro-4-(hydroxymethyl)phenyl)-3-(trifluoromethyl)-1H-pyrazol-1-yl)-2-methylpropan-2-yl)-3-(1-(difluoromethyl)-1H-pyrazol-4-yl)-2-((1R,3R)-1-(4-(2-methyl-2H-pyrazolo[3,4-b]pyridin-5-yl)phenyl)-4-oxo-5-azaspiro[2.4]heptan-5-yl)propanamide] | ≤ 300 nM
CC(C)(Cn1cc(C(F)(F)F)cn1)NC(=O)[C@@H](Cc1cnc2ncccn12)NC(=O)[C@H]1C[C@@H]1c1ccc(NC(=O)C2CCC(F)(F)CC2)cc1 [Example 45, 4,4-Difluoro-N-(4-((1S,2S)-2-(((R)-3-(imidazo[1,2-a]pyrimidin-3-yl)-1-((2-methyl-1-(4-(trifluoromethyl)-1H-pyrazol-1-yl)propan-2-yl)amino)-1-oxopropan-2-yl)carbamoyl)cyclopropyl)phenyl)cyclohexane-1-carboxamide] | ≤ 300 nM
CC(C)(Cn1cc(C(F)(F)F)cn1)NC(=O)[C@@H](Cc1cnc2ncccn12)NC(=O)[C@H]1C[C@@H]1c1ccc(-c2cnc3nn(C4CCC4)cc3c2)cc1 [Example 84, (1S,2S)-2-(4-(2-Cyclobutyl-2H-pyrazolo[3,4-b]pyridin-5-yl)phenyl)-N-((R)-3-(imidazo[1,2-a]pyrimidin-3-yl)-1-((2-methyl-1-(4-(trifluoromethyl)-1H-pyrazol-1-yl)propan-2-yl)amino)-1-oxopropan-2-yl)cyclopropane-1-carboxamide] | ≤ 300 nM
Cn1cc2cc(-c3ccc([C@H]4C[C@@]45CCN([C@H](Cc4cnn(C(F)F)c4)C(=O)NC(C)(C)Cn4nc(C(F)(F)F)cc4-c4cn(C)c(=O)c6ccccc46)C5=O)cc3)cnc2n1 [Example 129, (R)-3-(1-(Difluoromethyl)-1H-pyrazol-4-yl)-N-(2-methyl-1-(5-(2-methyl-1-oxo-1,2-dihydroisoquinolin-4-yl)-3-(trifluoromethyl)-1H-pyrazol-1-yl)propan-2-yl)-2-((1R,3R)-1-(4-(2-methyl-2H-pyrazolo[3,4-b]pyridin-5-yl)phenyl)-4-oxo-5-azaspiro[2.4]heptan-5-yl)propanamide] | ≤ 300 nM
